Measured values reported in patent publication US20240360245A1 (Daiichi Sankyo, published 2024).
Results are given in words; binding and its absence hold for the method and conditions named. Some binding calls cover weakened binding; strength is not graded here.

By UniProt entry, the sequences of proteins in these tests, tags left out. Where a name states a change or a piece, a line headed by the entry shows the natural chain unless it says otherwise.
UniProt P01137: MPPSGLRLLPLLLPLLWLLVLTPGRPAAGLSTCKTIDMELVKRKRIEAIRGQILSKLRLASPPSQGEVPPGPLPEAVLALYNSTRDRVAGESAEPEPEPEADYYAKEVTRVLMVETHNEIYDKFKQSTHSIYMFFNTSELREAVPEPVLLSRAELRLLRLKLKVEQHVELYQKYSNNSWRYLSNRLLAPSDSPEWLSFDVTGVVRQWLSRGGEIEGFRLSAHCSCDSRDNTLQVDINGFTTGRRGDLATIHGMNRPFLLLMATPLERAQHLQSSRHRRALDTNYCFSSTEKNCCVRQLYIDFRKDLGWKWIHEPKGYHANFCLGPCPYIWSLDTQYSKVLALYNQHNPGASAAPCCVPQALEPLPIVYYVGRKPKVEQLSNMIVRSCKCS

Tests used:
[1] = target: human GARP co-expressed with human TGF β1 on HEK-293T cells (human) (UniProt P01137); experiment: flow cytometry, HEK-293T cells co-transfected with TGF β1 and GARP
[2] = target: human GARP co-expressed with human TGF β1 on HEK-293T cells (human) (UniProt P01137); experiment: flow cytometry on HEK-293T cells co-transfected with human TGF beta1 and human GARP, PE-labeled anti-IgG secondary antibody

Binder | binding [1] | binding [2]
humanized anti-human GARP antibody h151D-H1L1 (antibody, human IgG1, kappa, V domains shown, Produced in Potelligent CHOK1SV cells; also called MACA-1511a) VH: EVQLVESGGGLVQPGGSLRLSCAASGFTFSNYYMAWVRQAPGKGLEWVSSIGTVGGNTYYADSVKGRFTISRDDSKNTLYLQMNSLRAEDTAVYYCAREDYGGFPHWGQGTLVTVSS VL: NIVMTQSPDSLAVSLGERATINCKASQNVGTNVDWYQQKPGQSPKLLIYGASNRYTGVPDRFSGSGSGTDFTLTISSLQAEDVAVYDCLQYKYNPYTFGQGTKVEIKR | binds | binds
humanized anti-human GARP antibody h151D-H4L4 (antibody, human IgG1, kappa, V domains shown, Produced in Potelligent CHOK1SV cells; also called MACA-1514a) VH: EVQLVESGGGLVQPGGSLRLSCAASGFTFSNYYMAWVRQAPGKGLEWVASIGTVGGNTYYRDSVKGRFTISRDDSKSTLYLQMNSLRAEDTAVYYCAREDYGGFPHWGQGTLVTVSS VL: NIVMTQSPSSLSASVGDRVTINCKASQNVGTNVDWYQQKPGKSPKLLIYGASNRYTGVPDRFSGSGSGTDFTLTISSLQPEDFATYDCLQYKYNPYTFGQGTKVEIKR | binds | binds
humanized anti-human GARP antibody h198D-H3L4 (antibody, human IgG1, kappa, V domains shown, Produced in Potelligent CHOK1SV cells; also called MACA-1983a) VH: EVQLVESGGGLVKPSQTLSLTCTVSGFSLTSFHVSWVRQPPGKGLEWIATISSGGGTYYNPSLKSRVTISRDTSKNQVSLKLSSVTAADTAVYYCARISGWGHYYVMDVWGQGTLVTVSS VL: DIQMTQSPSSLSASVGDRVTITCQASEDIYSGLAWYQQKPGKSPKLLIYGAGSLQDGVPSRFSGSGSGTHYTLTISSLQPEDFATYFCQQGLKFPLTFGQGTKVEIKR | binds | binds
105F antibody (antibody, human IgG1, lambda, V domains shown) VH: EVQLLESGGGLVQPGGSLRLSCAASGFTFSDYYMSWIRQAPGKGLEWVSGVSWNGSRTHYADSVKGRFTISRDNSKNTLYLQMNSLRAEDTAVYYCARQRQLAEFDYWGQGTLVTVSS VL: QSVLTQPPSASGTPGQRVTISCTGSSSNIGAGYVVHWYQQLPGTAPKLLIYADTNRPSGVPDRFSGSKSGTSASLAISGLRSEDEADYYCQSYDSSLRGWVFGGGTKLTVLG | binds | binds
